Data source: PubChem BioAssay AID602196 (INSERM, 2012)
Screen: 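Genes whose knock-down alters cisplatin killing of lung cancer cells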. Cells: human A549 lung cancer cells. Reagents: siRNA pair against human genes. Timing: 48 h transfection before cisplatin; time from cisplatin to read-out not stated. Challenge: cisplatin at a dose killing half of control-siRNA cells; exact dose and duration not given. Detection: 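Shift in cisplatin death relative to control siRNA, from -50 (all cells die) to +50 (no cells die); siRNAs harmful on their own scored 0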. Reading the numbers: two-siRNA summed score (-2 to +2): higher = both siRNAs protect from cisplatin killing; -2 means both sensitise; mean protection from cisplatin (shift in death): higher = protection from cisplatin killing. Call rule: 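Each siRNA scores 0 if harmful alone by LDH or WST-1, otherwise +1 if it reduces and -1 if it increases cisplatin killing; a gene is active when both siRNAs agree (sum +2 or -2)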. Calls: active = both siRNAs shift cisplatin killing the same way; inactive = no consistent shift, or siRNA harmful alone.
Shown is a random part of about 23,000 deposited reagents. Of all reagents, 455 (2%) were called active. 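Active includes both protection and sensitisation; some change values fall well beyond the stated -50 to +50 range.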 A number with no mark means an inactive call. Further read-outs or replicates are left out here. No sequences are given here. The record does not give: the amount of reagent.

Gene	two-siRNA summed score (-2 to +2)	mean protection from cisplatin (shift in death) (%)
SYN2	0	-11.4
LRRTM4	-1	-14
PCSK6	0	-4.8
LOC390754	0	26.8
LOC401700	0	1.3
SV2C	0	-2.3
STC2	0	-3.5
FXYD3	1	14.8
PDE3B	1	7.1
AGXT2	1	9
STT3A	0	16.2
LOC345930	0	6.2
SPRR4	1	14.8
LOC440752	1	15.8
LOC441500	0	9.5
PLPPR2	0	-12.7
LYPD5	0	-3.6
VCX	0	24
SURF6	1	13.2
LOC389341	0	6.1
TCF12	0	-9.2
GNAT1	0	11.4
OR10J3	0	8.8
TESPA1	-1	-5
LOC391827	0	7.1
PIP	1	10.8
SGK3	1	18.7
H2BC12	0	3.4
LOC441062	0	14.3
ASIC4	0	6.9
BCL2L2	1	0.4
SAPCD2	-1	-11.3
CA7	1	6.5
NUP107	0	2
GPIHBP1	-1	-6.2
ETV3	1	3.4
ADAP2	0	14.7
LOC391040	0	26.7
LOC440537	0	-0.4
CXCR1	0	-4.1
UBQLN4	-1	-17.9
MAGEL2	0	-4.3
LOC100506459	1	0.6
LOC375133	0	-2.2
CYTH3	-1	-9.5
LOC346950	-1	-7.4
SPANXC	0	-7.9
UTP11	0	6.6
TTR	0	5
SLC25A51	0	3.2
LOC340148	1	9.5
FKBP5	0	3.5
PRKCD	-1	-7.4
LOC402458	0	5.4
KCTD15	0	12.7
SERPI-13	1	6.7
C1GALT1C1	0	1.2
